# Measurements reported in PubChem BioAssay AID602196 (INSERM, 2012).
# Purpose: 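Modifiers of cisplatin sensitivity in A549 cells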
# Cell system: human A549 lung cancer cells
# Reagent: siRNA pair against human genes
# Timing: 48 h transfection before cisplatin; time from cisplatin to read-out not stated
# Challenge: cisplatin at a dose killing half of control-siRNA cells; exact dose and duration not given
# Read-out: 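Cisplatin cell death as a shift from the 50% death seen with control siRNA; siRNAs toxic or growth-blocking alone scored 0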
# Reading the numbers: two-siRNA summed score (-2 to +2): higher = both siRNAs protect from cisplatin killing; -2 means both sensitise; mean protection from cisplatin (shift in death) and protection from cisplatin (shift in death), siRNA C and protection from cisplatin (shift in death), siRNA D: higher = protection from cisplatin killing
# Call rule: 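siRNAs harmful alone (LDH or WST-1) get 0; others get +1 for less and -1 for more cisplatin killing; genes are active when the two siRNAs give the same sign, summing to ±2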
# Meaning of the calls: active = both siRNAs shift cisplatin killing the same way; inactive = no consistent shift, or siRNA harmful alone
# Shown is an unselected part of about 23,000 deposited reagents. Of all reagents, 455 (2%) got an active call. 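Active includes both protection and sensitisation; some change values fall well beyond the stated -50 to +50 range.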 Entries without a mark were called inactive. Not given: the amount of reagent.
two-siRNA summed score (-2 to +2),mean protection from cisplatin (shift in death) (%),"protection from cisplatin (shift in death), siRNA C (%)","protection from cisplatin (shift in death), siRNA D (%)",gene knocked down
0,8.9,10.8,7,WASHC3 (WASH complex subunit 3)
1,5,-5.6,15.6,TYRO3 (TYRO3 protein tyrosine kinase)
0,20.9,8.4,33.5,LOC441686
-1,-15.7,-22.2,-9.2,PPIL2 (peptidylprolyl isomerase like 2)
0,0.6,-0.3,1.6,PTTG1IP (PTTG1 interacting protein)
0,8.9,13.6,4.1,REPS1 (RALBP1 associated Eps domain containing 1)
0,-3.1,-6.9,0.6,ARRDC3 (arrestin domain containing 3)
-2 (active),-20.2,-20.6,-19.7,NPEPPS (aminopeptidase puromycin sensitive)
0,-1.9,-6.4,2.7,SRMS
-1,-17.1,-4.5,-29.7,"RAVER2 (ribonucleoprotein, PTB binding 2)"
0,0.1,4.6,-4.4,SPANXN3 (SPANX family member N3)
0,-1.2,-13,10.6,PRAMEF1 (PRAME family member 1)
0,9.8,-2.7,22.2,HAUS3 (HAUS augmin like complex subunit 3)
1,20.5,28.6,12.4,CEP192 (centrosomal protein 192)
0,0.5,-3.2,4.3,MAP3K20 (mitogen-activated protein kinase kinase kinase 20)
1,12.8,6.9,18.7,LOC441698 (retired record)
0,-0.2,-0.3,-0.2,PIAS1 (protein inhibitor of activated STAT 1)
1,11.7,16.8,6.5,GGTLC2 (gamma-glutamyltransferase light chain 2)
0,4.2,13.4,-5.1,CAND2 (cullin associated and neddylation dissociated 2 (putative))
1,21.7,27.3,16,SPHK2 (sphingosine kinase 2)
0,3.9,1.4,6.5,LOC440283
-1,-12.1,-15.1,-9.2,ROBO1 (roundabout guidance receptor 1)
0,-2.9,3.8,-9.6,FANCC (FA complementation group C)
0,-9.6,-4.1,-15.2,RTKN (rhotekin)
-1,-8.5,-25.2,8.2,ZNF562 (zinc finger protein 562)
1,6.3,16,-3.4,LOC387781
0,-16.2,-16,-16.5,TGFB2 (transforming growth factor beta 2)
1,15.9,12.9,18.8,LOC440849
0,13.4,8.4,18.4,WDR27 (WD repeat domain 27)
-1,-9,0.3,-18.3,ADAMTS15 (ADAM metallopeptidase with thrombospondin type 1 motif 15)
0,9.4,5,13.7,COMMD6 (COMM domain containing 6)
1,21,30.9,11.1,DSPP (dentin sialophosphoprotein)
1,19.7,27.1,12.2,LOC200810
0,3.2,1.7,4.7,"GORAB (golgin, RAB6 interacting)"
0,3.8,8.7,-1.1,LOC442140
0,2.7,-5.8,11.2,"ACP6 (acid phosphatase 6, lysophosphatidic)"
0,6,7.1,4.9,GPR15 (G protein-coupled receptor 15)
0,-2.8,12.3,-17.9,ZNF611 (zinc finger protein 611)
0,9.5,6,13,GALNT15 (polypeptide N-acetylgalactosaminyltransferase 15)

A few values from above.
Value of ACP6 (acid phosphatase 6, lysophosphatidic) under “mean protection from cisplatin (shift in death) (%)”: 2.7
RAVER2 (ribonucleoprotein, PTB binding 2), two-siRNA summed score (-2 to +2): -1
Under “protection from cisplatin (shift in death), siRNA D (%)”, DSPP (dentin sialophosphoprotein) has 11.1
For “protection from cisplatin (shift in death), siRNA D (%)”, LOC441698 (retired record) shows 18.7
